Results on nine molecules are retold here after PMC6160419.

By UniProt entry, the sequences of proteins in these tests, tags left out.
UniProt O75179: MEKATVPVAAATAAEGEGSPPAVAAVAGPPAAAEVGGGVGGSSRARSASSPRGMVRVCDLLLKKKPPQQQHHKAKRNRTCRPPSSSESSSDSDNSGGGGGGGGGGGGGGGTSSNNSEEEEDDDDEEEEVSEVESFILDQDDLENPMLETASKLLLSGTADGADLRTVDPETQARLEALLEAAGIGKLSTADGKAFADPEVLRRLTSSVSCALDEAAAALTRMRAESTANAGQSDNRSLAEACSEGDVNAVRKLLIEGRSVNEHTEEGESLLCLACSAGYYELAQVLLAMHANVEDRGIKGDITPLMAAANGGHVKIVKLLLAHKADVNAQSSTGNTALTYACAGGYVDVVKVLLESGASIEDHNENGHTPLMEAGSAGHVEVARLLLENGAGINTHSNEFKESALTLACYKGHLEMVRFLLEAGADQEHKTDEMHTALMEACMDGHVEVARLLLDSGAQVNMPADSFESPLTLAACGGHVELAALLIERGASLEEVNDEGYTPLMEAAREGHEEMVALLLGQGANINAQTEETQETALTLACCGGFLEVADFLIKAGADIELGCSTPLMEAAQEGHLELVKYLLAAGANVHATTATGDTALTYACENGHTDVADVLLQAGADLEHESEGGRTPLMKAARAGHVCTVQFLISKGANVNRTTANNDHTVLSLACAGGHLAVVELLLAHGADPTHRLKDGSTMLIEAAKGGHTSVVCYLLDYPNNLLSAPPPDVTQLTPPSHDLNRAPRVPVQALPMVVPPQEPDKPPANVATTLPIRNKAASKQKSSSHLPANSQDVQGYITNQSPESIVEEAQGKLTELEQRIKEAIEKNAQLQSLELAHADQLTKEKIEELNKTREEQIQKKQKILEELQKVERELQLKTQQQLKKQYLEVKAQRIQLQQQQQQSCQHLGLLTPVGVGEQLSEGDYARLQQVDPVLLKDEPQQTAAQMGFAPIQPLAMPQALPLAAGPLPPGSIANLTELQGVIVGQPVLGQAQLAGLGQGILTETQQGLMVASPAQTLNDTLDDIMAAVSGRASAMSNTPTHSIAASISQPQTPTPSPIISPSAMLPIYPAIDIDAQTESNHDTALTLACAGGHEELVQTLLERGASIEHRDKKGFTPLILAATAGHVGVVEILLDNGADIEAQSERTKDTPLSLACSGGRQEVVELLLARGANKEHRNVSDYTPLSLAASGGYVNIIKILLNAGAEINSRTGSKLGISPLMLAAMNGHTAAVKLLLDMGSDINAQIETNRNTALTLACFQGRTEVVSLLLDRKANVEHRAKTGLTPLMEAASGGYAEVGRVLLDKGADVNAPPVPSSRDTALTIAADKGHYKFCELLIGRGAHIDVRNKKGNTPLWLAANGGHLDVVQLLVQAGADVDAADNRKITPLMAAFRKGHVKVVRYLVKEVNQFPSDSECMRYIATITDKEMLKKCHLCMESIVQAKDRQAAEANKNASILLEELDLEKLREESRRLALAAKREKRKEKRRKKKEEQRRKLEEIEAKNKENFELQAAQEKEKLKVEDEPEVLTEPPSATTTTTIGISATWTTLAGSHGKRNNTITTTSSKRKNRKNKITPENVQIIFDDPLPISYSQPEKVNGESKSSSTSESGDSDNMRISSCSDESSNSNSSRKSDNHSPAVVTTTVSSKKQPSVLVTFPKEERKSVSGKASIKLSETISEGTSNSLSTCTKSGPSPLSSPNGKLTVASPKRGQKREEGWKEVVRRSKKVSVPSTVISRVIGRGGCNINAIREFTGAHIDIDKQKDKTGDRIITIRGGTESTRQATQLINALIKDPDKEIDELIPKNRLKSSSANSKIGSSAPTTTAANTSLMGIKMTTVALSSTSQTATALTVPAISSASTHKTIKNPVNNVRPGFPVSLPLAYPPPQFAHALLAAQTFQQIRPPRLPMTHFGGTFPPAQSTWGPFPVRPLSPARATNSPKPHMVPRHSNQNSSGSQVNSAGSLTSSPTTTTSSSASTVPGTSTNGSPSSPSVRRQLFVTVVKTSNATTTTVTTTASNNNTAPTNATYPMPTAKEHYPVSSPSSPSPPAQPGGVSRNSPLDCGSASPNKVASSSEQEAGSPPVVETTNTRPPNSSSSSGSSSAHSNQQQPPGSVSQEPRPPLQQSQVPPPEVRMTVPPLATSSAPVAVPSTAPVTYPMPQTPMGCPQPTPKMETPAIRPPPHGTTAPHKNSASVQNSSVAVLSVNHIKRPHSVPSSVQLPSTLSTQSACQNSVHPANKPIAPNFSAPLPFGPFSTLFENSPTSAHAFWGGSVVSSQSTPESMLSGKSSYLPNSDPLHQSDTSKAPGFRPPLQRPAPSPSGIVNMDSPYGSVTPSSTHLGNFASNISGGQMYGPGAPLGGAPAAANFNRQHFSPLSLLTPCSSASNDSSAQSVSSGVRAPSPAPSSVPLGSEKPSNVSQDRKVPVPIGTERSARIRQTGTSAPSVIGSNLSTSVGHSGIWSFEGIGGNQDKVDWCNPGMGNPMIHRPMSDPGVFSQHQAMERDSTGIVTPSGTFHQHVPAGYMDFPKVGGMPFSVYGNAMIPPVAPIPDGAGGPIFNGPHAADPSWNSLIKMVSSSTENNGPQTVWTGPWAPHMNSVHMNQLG
UniProt Q9P2B7: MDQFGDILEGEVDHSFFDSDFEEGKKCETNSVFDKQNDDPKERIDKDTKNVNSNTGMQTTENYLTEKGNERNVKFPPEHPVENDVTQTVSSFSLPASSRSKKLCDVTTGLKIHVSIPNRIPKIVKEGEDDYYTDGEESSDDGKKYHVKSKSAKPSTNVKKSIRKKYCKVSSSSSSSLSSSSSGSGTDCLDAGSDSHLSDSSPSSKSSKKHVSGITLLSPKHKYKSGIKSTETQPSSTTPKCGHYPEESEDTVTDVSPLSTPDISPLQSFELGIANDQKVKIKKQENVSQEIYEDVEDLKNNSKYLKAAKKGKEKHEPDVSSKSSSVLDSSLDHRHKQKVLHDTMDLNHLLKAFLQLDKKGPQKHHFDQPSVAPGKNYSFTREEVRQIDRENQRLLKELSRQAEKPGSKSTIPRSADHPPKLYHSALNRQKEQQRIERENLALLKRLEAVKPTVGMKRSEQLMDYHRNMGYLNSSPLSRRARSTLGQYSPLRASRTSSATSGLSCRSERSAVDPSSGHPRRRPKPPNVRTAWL
UniProt Q9H5H4: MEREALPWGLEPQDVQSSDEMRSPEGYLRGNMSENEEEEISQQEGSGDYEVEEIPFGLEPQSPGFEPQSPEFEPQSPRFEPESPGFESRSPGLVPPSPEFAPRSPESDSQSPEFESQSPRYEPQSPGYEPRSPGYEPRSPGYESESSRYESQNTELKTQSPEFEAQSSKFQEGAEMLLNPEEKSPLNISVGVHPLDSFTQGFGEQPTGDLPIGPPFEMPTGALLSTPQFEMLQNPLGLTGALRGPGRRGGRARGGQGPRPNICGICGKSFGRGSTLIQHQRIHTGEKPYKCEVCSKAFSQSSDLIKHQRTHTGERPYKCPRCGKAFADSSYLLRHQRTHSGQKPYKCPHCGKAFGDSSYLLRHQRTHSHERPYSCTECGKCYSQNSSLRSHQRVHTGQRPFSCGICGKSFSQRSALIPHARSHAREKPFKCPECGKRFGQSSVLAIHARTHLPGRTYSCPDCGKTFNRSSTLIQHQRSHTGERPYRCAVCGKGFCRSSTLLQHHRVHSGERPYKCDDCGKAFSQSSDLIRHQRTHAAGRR

This test deals with T1, FAM13A (human) (UniProt O94988).
T1 sequence: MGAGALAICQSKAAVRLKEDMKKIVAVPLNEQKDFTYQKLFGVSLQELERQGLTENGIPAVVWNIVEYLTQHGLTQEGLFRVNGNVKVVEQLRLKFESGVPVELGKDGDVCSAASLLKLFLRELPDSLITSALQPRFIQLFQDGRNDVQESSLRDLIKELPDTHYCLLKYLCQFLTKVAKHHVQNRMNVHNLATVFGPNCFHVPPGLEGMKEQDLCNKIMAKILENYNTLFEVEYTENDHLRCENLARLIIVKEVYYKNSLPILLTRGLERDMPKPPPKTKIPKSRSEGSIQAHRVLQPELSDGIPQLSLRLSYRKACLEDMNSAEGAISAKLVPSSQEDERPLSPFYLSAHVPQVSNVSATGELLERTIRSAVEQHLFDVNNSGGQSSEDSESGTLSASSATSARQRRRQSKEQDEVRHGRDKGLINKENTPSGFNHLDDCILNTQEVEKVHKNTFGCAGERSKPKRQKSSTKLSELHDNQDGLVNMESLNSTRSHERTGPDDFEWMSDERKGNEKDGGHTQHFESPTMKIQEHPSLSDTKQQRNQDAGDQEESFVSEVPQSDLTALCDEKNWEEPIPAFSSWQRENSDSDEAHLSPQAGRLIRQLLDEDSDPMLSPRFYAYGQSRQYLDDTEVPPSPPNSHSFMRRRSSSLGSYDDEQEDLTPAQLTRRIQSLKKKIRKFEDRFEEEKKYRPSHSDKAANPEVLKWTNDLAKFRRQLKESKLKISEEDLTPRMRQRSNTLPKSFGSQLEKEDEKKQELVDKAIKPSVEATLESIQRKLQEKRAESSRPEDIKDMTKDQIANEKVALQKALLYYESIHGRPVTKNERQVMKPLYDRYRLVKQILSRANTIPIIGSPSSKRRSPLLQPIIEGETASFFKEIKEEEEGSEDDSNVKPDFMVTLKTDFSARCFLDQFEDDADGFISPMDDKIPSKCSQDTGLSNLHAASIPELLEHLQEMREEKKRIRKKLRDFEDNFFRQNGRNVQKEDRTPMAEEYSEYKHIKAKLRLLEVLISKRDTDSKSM
The experiment in a line: affinity purification with mass spectrometry; pull-down assay with FAM13A as bait, affinity purification-mass spectrometry; no conditions told; the methods say it was performed previously (ref. 23).

Results are given in words; binding and its absence hold for the method and conditions named. Binding seen in cells or lysates may run through a third protein. Here binding means that the protein was enriched with, or labelled near, the bait; the list need not be complete.

For the molecule ANKRD17 (from UniProt O75179 1-2603), the binding entry was “binds”.

As for KIAA1430 (from UniProt Q9P2B7 1-532), the binding entry is “binds”.

For ZNF768 (from UniProt Q9H5H4 1-540), the binding entry is “binds”.

B1: AP3D1 (protein, UniProt O14617 1-1153)
chain: MALKMVKGSIDRMFDKNLQDLVRGIRNHKEDEAKYISQCIDEIKQELKQDNIAVKANAVCKLTYLQMLGYDISWAAFNIIEVMSASKFTFKRIGYLAASQSFHEGTDVIMLTTNQIRKDLSSPSQYDTGVALTGLSCFVTPDLARDLANDIMTLMSHTKPYIRKKAVLIMYKVFLKYPESLRPAFPRLKEKLEDPDPGVQSAAVNVICELARRNPKNYLSLAPLFFKLMTSSTNNWVLIKIIKLFGALTPLEPRLGKKLIEPLTNLIHSTSAMSLLYECVNTVIAVLISLSSGMPNHSASIQLCVQKLRILIEDSDQNLKYLGLLAMSKILKTHPKSVQSHKDLILQCLDDKDESIRLRALDLLYGMVSKKNLMEIVKKLMTHVDKAEGTTYRDELLTKIIDICSQSNYQYITNFEWYISILVELTRLEGTRHGHLIAAQMLDVAIRVKAIRKFAVSQMSALLDSAHLLASSTQRNGICEVLYAAAWICGEFSEHLQEPHHTLEAMLRPRVTTLPGHIQAVYVQNVVKLYASILQQKEQAGEAEGAQAVTQLMVDRLPQFVQSADLEVQERASCILQLVKHIQKLQAKDVPVAEEVSALFAGELNPVAPKAQKKVPVPEGLDLDAWINEPLSDSESEDERPRAVFHEEEQRRPKHRPSEADEEELARRREARKQEQANNPFYIKSSPSPQKRYQDTPGVEHIPVVQIDLSVPLKVPGLPMSDQYVKLEEERRHRQKLEKDKRRKKRKEKEKKGKRRHSSLPTESDEDIAPAQQVDIVTEEMPENALPSDEDDKDPNDPYRALDIDLDKPLADSEKLPIQKHRNTETSKSPEKDVPMVEKKSKKPKKKEKKHKEKERDKEKKKEKEKKKSPKPKKKKHRKEKEERTKGKKKSKKQPPGSEEAAGEPVQNGAPEEEQLPPESSYSLLAENSYVKMTCDIRGSLQEDSQVTVAIVLENRSSSILKGMELSVLDSLNARMARPQGSSVHDGVPVPFQLPPGVSNEAQYVFTIQSIVMAQKLKGTLSFIAKNDEGATHEKLDFRLHFSCSSYLITTPCYSDAFAKLLESGDLSMSSIKVDGIRMSFQNLLAKICFHHHFSVVERVDSCASMYSRSIQGHHVCLLVKKGENSVSVDGKCSDSTLLSNLLEEMKATLAKC
For the molecule B1, the binding result is recorded as “binds”.

B2: RBM34 (protein, UniProt P42696 1-430)
chain: MALEGMSKRKRKRSVQEGENPDDGVRGSPPEDYRLGQVASSLFRGEHHSRGGTGRLASLFSSLEPQIQPVYVPVPKQTIKKTKRNEEEESTSQIERPLSQEPAKKVKAKKKHTNAEKKLADRESALASADLEEEIHQKQGQKRKNSQPGVKVADRKILDDTEDTVVSQRKKIQINQEEERLKNERTVFVGNLPVTCNKKKLKSFFKEYGQIESVRFRSLIPAEGTLSKKLAAIKRKIHPDQKNINAYVVFKEESAATQALKRNGAQIADGFRIRVDLASETSSRDKRSVFVGNLPYKVEESAIEKHFLDCGSIMAVRIVRDKMTGIGKGFGYVLFENTDSVHLALKLNNSELMGRKLRVMRSVNKEKFKQQNSNPRLKNVSKPKQGLNFTSKTAEGHPKSLFIGEKAVLLKTKKKGQKKSGRPKKQRKQK
On to B2, for which the binding result is “binds”.

B3: NIP7 (protein, UniProt Q9Y221 1-180)
chain: MRPLTEEETRVMFEKIAKYIGENLQLLVDRPDGTYCFRLHNDRVYYVSEKIMKLAANISGDKLVSLGTCFGKFTKTHKFRLHVTALDYLAPYAKYKVWIKPGAEQSFLYGNHVLKSGLGRITENTSQYQGVVVYSMADIPLGFGVAAKSTQDCRKVDPMAIVVFHQADIGEYVRHEETLT
Consider B3, for which the binding entry was “binds”.

B4: GPC4 (protein, UniProt O75487 19-529)
chain: ALLAAELKSKSCSEVRRLYVSKGFNKNDAPLHEINGDHLKICPQGSTCCSQEMEEKYSLQSKDDFKSVVSEQCNHLQAVFASRYKKFDEFFKELLENAEKSLNDMFVKTYGHLYMQNSELFKDLFVELKRYYVVGNVNLEEMLNDFWARLLERMFRLVNSQYHFTDEYLECVSKYTEQLKPFGDVPRKLKLQVTRAFVAARTFAQGLAVAGDVVSKVSVVNPTAQCTHALLKMIYCSHCRGLVTVKPCYNYCSNIMRGCLANQGDLDFEWNNFIDAMLMVAERLEGPFNIESVMDPIDVKISDAIMNMQDNSVQVSQKVFQGCGPPKPLPAGRISRSISESAFSARFRPHHPEERPTTAAGTSLDRLVTDVKEKLKQAKKFWSSLPSNVCNDERMAAGNGNEDDCWNGKGKSRYLFAVTGNGLANQGNNPEVQVDTSKPDILILRQIMALRVMTSKMKNAYNGNDVDFFDISDESSGEGSGSGCEYQQCPSEFDYNATDHAGKSANEKADS
For B4, the binding result is on record as “binds”.

B5: OSBPL8 (protein, UniProt Q9BZF1 1-889)
chain: MEGGLADGEPDRTSLLGDSKDVLGPSTVVANSDESQLLTPGKMSQRQGKEAYPTPTKDLHQPSLSPASPHSQGFERGKEDISQNKDESSLSMSKSKSESKLYNGSEKDSSTSSKLTKKESLKVQKKNYREEKKRATKELLSTITDPSVIVMADWLKIRGTLKSWTKLWCVLKPGVLLIYKTQKNGQWVGTVLLNACEIIERPSKKDGFCFKLFHPLEQSIWAVKGPKGEAVGSITQPLPSSYLIIRATSESDGRCWMDALELALKCSSLLKRTMIREGKEHDLSVSSDSTHVTFYGLLRANNLHSGDNFQLNDSEIERQHFKDQDMYSDKSDKENDQEHDESDNEVMGKSEESDTDTSERQDDSYIEPEPVEPLKETTYTEQSHEELGEAGEASQTETVSEENKSLIWTLLKQVRPGMDLSKVVLPTFILEPRSFLDKLSDYYYHADFLSEAALEENPYFRLKKVVKWYLSGFYKKPKGLKKPYNPILGETFRCLWIHPRTNSKTFYIAEQVSHHPPISAFYVSNRKDGFCLSGSILAKSKFYGNSLSAILEGEARLTFLNRGEDYVMTMPYAHCKGILYGTMTLELGGTVNITCQKTGYSAILEFKLKPFLGSSDCVNQISGKLKLGKEVLATLEGHWDSEVFITDKKTDNSEVFWNPTPDIKQWRLIRHTVKFEEQGDFESEKLWQRVTRAINAKDQTEATQEKYVLEEAQRQAARDRKTKNEEWSCKLFELDPLTGEWHYKFADTRPWDPLNDMIQFEKDGVIQTKVKHRTPMVSVPKMKHKPTRQQKKVAKGYSSPEPDIQDSSGSEAQSVKPSTRRKKGIELGDIQSSIESIKQTQEEIKRNIMALRNHLVSSTPATDYFLQQKDYFIIFLLILLQVIINFMFK
Regarding B5, the binding entry is on record as “binds”.

B6: ESF1 (protein, UniProt Q9H501 1-851)
chain: MSSKQEIMSDQRFRRVAKDPRFWEMPEKDRKVKIDKRFRAMFHDKKFKLNYAVDKRGRPISHSTTEDLKRFYDLSDSDSNLSGEDSKALSQKKIKKKKTQTKKEIDSKNLVEKKKETKKANHKGSENKTDLDNSIGIKKMKTSCKFKIDSNISPKKDSKEFTQKNKKEKKNIVQHTTDSSLEEKQRTLDSGTSEIVKSPRIECSKTRREMQSVVQLIMTRDSDGYENSTDGEMCDKDALEEDSESVSEIGSDEESENEITSVGRASGDDDGSEDDEEEDEDEEEDEDEDSEDDDKSDSGPDLARGKGNIETSSEDEDDTADLFPEESGFEHAWRELDKDAPRADEITRRLAVCNMDWDRLKAKDLLALFNSFKPKGGVIFSVKIYPSEFGKERMKEEQVQGPVELLSIPEDAPEKDWTSREKLRDYQFKRLKYYYAVVDCDSPETASKIYEDCDGLEFESSCSFIDLRFIPDDITFDDEPKDVASEVNLTAYKPKYFTSAAMGTSTVEITWDETDHERITMLNRKFKKEELLDMDFQAYLASSSEDEEEIEEELQGDDGVNVEEDGKTKKSQKDDEEQIAKYRQLLQVIQEKEKKGKENDMEMEIKWVPGLKESAEEMVKNKLEGKDKLTPWEQFLEKKKEKKRLKRKQKALAEEASEEELPSDVDLNDPYFAEEVKQIGINKKSVKSAKDGTSPEEEIEIERQKAEMALLMMDEDEDSKKHFNYNKIVEHQNLSKKKKKQLMKKKELIEDDFEVNVNDARFQAMYTSHLFNLDPSDPNFKKTKAMEKILEEKARQRERKEQELTQAIKKKESEIEKESQRKSIDPALSMLIKSIKTKTEQFQARKKQKVK
In the case of B6, the binding entry is “binds”.
